Hit rate of the full screen: of about 360,000 compounds, about 7,500 (2.1%) were called active. Inconclusive means that the source gave no clear call. Such entries were picked first, then a sample of the others. Calls come from the whole dose curve; as a rule, active = well fitted inhibition curve with a large enough effect; inconclusive = small, poorly fitted or top-dose-only effect, or effect the other way; inactive = flat fitted curve, though single readings scatter. Potencies of inconclusive entries are doubtful fits and often do not repeat.
Experiment: Nrf2 qHTS screen for inhibitors; note: nearly all actives have a fitted effect of over 60% in size
Conditions: A549 ARE-Fluc reporter, luciferase luminescence, 18-24 h; activity change, negative = inhibition: at 46 µM (top of the series)
Method in brief: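 Two sequential reads on A549 ARE_Fluc cells exposed to compound for 18-24 h: a CellTiter-Fluor fluorescence read for viability, then a luciferase luminescence read for Nrf2/ARE activity.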
% is set by controls: 0 for no effect and ±100 for the full control effect; potency is the fitted concentration of half-maximal effect.

For CC(Cc1ccco1)NC(=O)c1ccc(C(F)(F)F)cc1 (configuration not stated), which Potency is on record?
The Potency was inconclusive: 29.1 µM [activator, single point].

For Cc1cccc(N(CC(N)=O)C2SC(=O)N(Cc3cccc(C(=O)O)c3)C2=O)c1 (configuration not stated), which “activity change, negative = inhibition” value is on record?
Its value is inactive: -17.3%.

Which Potency does the source give for Cc1[nH]n(-c2ccccc2)c(=O)c1/C=N/Nc1nncc(-c2ccccc2)n1 here?
Its Potency is inconclusive: 6.51 µM [falling, partial curve].

Which Potency does the source give for N/C(=N\OC(=O)C1CCCCC1)c1ccc(Cl)cc1 here?
The Potency was inconclusive: 18.4 µM [activator, partial curve].

With O=C(Nc1nnc(-c2ccco2)s1)C1CCCCC1 as the compound, how does the Potency read?
Its Potency is inconclusive: 8.2 µM [activator, partial curve].

With Cc1cccc(CSCc2ccc(C(=O)NC(C)C)o2)c1 as the compound, how does the Potency read?
Its Potency is active: 20.6 µM.

For CC(C)CC(COCc1ccc([N+](=O)[O-])cc1)N1CCN(C(=O)c2ccc(C(F)(F)F)cc2)CCC1=O (configuration not stated), which Potency is on record?
Its Potency is inconclusive: 29.1 µM [falling, single point].

For O=C(c1ccc2c(c1)OCO2)N(Cc1cccs1)C1(C(=O)NC2CCCCC2)CCCCC1, which Potency is on record?
Its Potency is inconclusive: 23.1 µM [falling, single point].

With O=C(NN/C(=N/S(=O)(=O)c1ccc(Cl)cc1)c1ccccc1)c1cccc(Cl)c1 as the compound, how does the Potency read?
Its Potency is inconclusive: 16.4 µM [activator, partial curve].

Which Potency does the source give for C/C(=N\Nc1ccccc1C(=O)O)c1ccncc1 here?
Its Potency is inconclusive: 2.59 µM [activator, full curve].

With CCOC(=O)Cc1c(C)nc2c(-c3cccc(Br)c3)c[nH]n2c1=O as the compound, how does the Potency read?
The Potency was inconclusive: 23.1 µM [falling, single point].

With O=c1[nH]c(SCc2cccc(Cl)c2)nc2c1CCC2 as the compound, how does the Potency read?
The Potency was inconclusive: 18.4 µM [falling, single point].

For COc1cccc(OCC(O)CNC(=O)c2oc3c(C)c(C)ccc3c2C)c1 (configuration not stated), which Potency is on record?
Its Potency is inconclusive: 32.6 µM [falling, single point].

With COC(=O)c1ccc([C@H]2Nc3ccc(S(=O)(=O)Nc4cccc(C)c4)cc3[C@H]3C=CC[C@H]32)cc1 as the compound, how does the “activity change, negative = inhibition” value read?
Its value is inactive: 1.87%.

Which “activity change, negative = inhibition” value does the source give for CC(C)CNC(=O)CSc1nc2scc(-c3ccccc3)c2c(=O)[nH]1 here?
Its value is inactive: -23.7%.

With CCOC(=O)c1sc2c(c1C)C(c1cccs1)C1=C(CCCC1=O)N2 (configuration not stated) as the compound, how does the Potency read?
Its Potency is inconclusive: 14.6 µM [falling, single point].

Which Potency does the source give for COc1ccc(CNC(=O)Cn2cnc3c(=O)n(C)c(=O)n(C)c32)cc1 here?
Its Potency is inconclusive: 14.6 µM [falling, partial curve].

Which Potency does the source give for c1cc(-c2cc3cc4c(cc3cn2)OCO4)cs1 here?
Its Potency is inconclusive: 5.17 µM [activator, partial curve].

With O=C(/C=N/O)NCCCN1CCOCC1 as the compound, how does the Potency read?
The Potency was inconclusive: 3.66 µM [falling, partial curve, poor fit].

With COc1ccc(NC(=O)Cn2c(-c3ccccc3)cn(-c3ccc(C)cc3)c2=O)cc1 as the compound, how does the “activity change, negative = inhibition” value read?
The value was inactive: 1.8%.

With C#CCSc1nnc(-c2ccc(C)cc2)o1 as the compound, how does the Potency read?
Its Potency is inconclusive: 1.64 µM [activator, full curve].

With Cc1ccc(NC(=O)CNc2cccc(S(=O)(=O)N3CCCCC3)c2)cc1F as the compound, how does the Potency read?
The Potency was inconclusive: 23.1 µM [falling, single point].

With CCCCOc1ccc(C(=O)N(Cc2ccco2)Cc2ccco2)cc1 as the compound, how does the “activity change, negative = inhibition” value read?
The value was inactive: -15.6%.

Which Potency does the source give for Cc1cc(C(=O)COC(=O)[C@H](C)NC(=O)c2ccco2)c(C)n1Cc1ccco1 here?
Its Potency is inconclusive: 3.66 µM [activator, full curve, poor fit].

With COc1ccc(-n2c(=O)c3c(c4cc(OC)ccc4n3C)n(CCC(C)C)c2=O)cc1 as the compound, how does the Potency read?
The Potency was inconclusive: 3.66 µM [activator, full curve, poor fit].

Which Potency does the source give for O=[N+]([O-])c1ccc(/C=N/n2cnc3ccccc32)s1 here?
The Potency was inconclusive: 32.6 µM [falling, single point].

For Cn1c(=O)c2c(nc(NCc3ccc4c(c3)OCO4)n2Cc2ccc(F)cc2)n(C)c1=O, which Potency is on record?
The Potency was active: 23.1 µM.

Which Potency does the source give for CSC(=NC#N)N1CCN(C(=NC#N)SC)CC1 here?
The Potency was inconclusive: 1.84 µM [activator, full curve, poor fit].

Which Potency does the source give for CC(C)Cc1nnc(NC(=O)CCC(=O)N2CCN(Cc3ccc(F)cc3)CC2)s1 here?
The Potency was inconclusive: 32.6 µM [falling, single point].

With O=C(CCc1ccccc1)NC(c1cccs1)c1cc(Cl)c2cccnc2c1O (configuration not stated) as the compound, how does the Potency read?
The Potency was active: 16.4 µM.

For COc1ccc(CNC(=O)c2cc3c(=O)n(C)c4ccccc4c3n2C)c(OC)c1, which “activity change, negative = inhibition” value is on record?
Its value is inactive: 3.41%.

For Cn1nc(C(F)(F)F)c(C(=O)Nc2ccc(Cl)cc2)c1Cl, which Potency is on record?
Its Potency is inconclusive: 32.6 µM [falling, single point].

With Cc1cc(C)c2oc(-c3ccc(C)c(NC(=O)/C=C/c4ccco4)c3)nc2c1 as the compound, how does the “activity change, negative = inhibition” value read?
The value was inactive: 22.8%.

With Cc1cc(C)c(NC(=O)/C=C\C(=O)O)c(Cl)c1 as the compound, how does the Potency read?
The Potency was inconclusive: 6.51 µM [falling, single point].

With CC(=NCCN1CCN(C(C)=C2C(=O)c3ccccc3C2=O)CC1)C1=C(O)CC(C)(C)CC1=O as the compound, how does the Potency read?
Its Potency is inconclusive: 23.1 µM [activator, partial curve, poor fit].

Which Potency does the source give for C/C(=N\NC(=S)NC1CCCCC1)c1ccc(Cl)c(Cl)c1 here?
Its Potency is inconclusive: 8.2 µM [activator, partial curve, poor fit].

For CCOC(=O)c1c(NC(=O)c2ccc(N3C(=O)C4C5C=CC(C5)C4C3=O)cc2)sc2c1CCCC2 (configuration not stated), which Potency is on record?
Its Potency is inconclusive: 5.8 µM [falling, partial curve, poor fit].

For Cn1c(=O)n(CC(=O)OCc2ccccc2)c(=O)c2c1nc1n2CCCN1C1CCCCC1, which Potency is on record?
The Potency was inconclusive: 23.1 µM [falling, single point].

With O=[S+]([O-])(c1ccc2nsnc2c1)N1CCN([S+](=O)([O-])c2c(F)cccc2F)CC1 as the compound, how does the “activity change, negative = inhibition” value read?
Its value is inactive: 0.194%.

With Nc1nccc(/C=C/c2c(F)cccc2Cl)n1 as the compound, how does the Potency read?
The Potency was inconclusive: 18.4 µM [activator, partial curve].

Which “activity change, negative = inhibition” value does the source give for CCn1cnc2c(Nc3ccc(CC(=O)N=C(N)N)cc3)nc(C#N)nc21 here?
The value was inactive: -20.2%.

With CN(C)c1ccc(/C=N/N2C(=S)SC(C)(C)C2N(O)C(=O)Nc2ccc([N+](=O)[O-])cc2)cc1 (configuration not stated) as the compound, how does the Potency read?
Its Potency is inconclusive: 18.4 µM [falling, partial curve, poor fit].
